Assay [1] addresses T1, LIM and SH3 domain protein 1 (Lasp1) (mouse (endogenous in FLS)) (UniProt Q61792).
T1 sequence: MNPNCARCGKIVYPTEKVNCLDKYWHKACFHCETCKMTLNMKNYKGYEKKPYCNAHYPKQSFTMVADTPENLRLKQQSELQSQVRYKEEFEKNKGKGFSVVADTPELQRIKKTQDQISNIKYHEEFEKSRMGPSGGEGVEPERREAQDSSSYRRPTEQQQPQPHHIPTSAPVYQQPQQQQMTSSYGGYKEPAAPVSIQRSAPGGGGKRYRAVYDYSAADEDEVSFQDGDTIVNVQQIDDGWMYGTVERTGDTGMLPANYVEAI
In words: co-IP; Lasp1 antibody on protein G Dynabeads, lysates of wt FLS, overnight at 4 °C; immunoblot for Cadherin-11, p120-Catenin and β-Catenin; Lasp1−/− FLS as control. In general terms: Immunoblotting shows a protein as a band on a membrane.

Chains of the proteins cited; added tags and fusions are not shown.
UniProt Q02248: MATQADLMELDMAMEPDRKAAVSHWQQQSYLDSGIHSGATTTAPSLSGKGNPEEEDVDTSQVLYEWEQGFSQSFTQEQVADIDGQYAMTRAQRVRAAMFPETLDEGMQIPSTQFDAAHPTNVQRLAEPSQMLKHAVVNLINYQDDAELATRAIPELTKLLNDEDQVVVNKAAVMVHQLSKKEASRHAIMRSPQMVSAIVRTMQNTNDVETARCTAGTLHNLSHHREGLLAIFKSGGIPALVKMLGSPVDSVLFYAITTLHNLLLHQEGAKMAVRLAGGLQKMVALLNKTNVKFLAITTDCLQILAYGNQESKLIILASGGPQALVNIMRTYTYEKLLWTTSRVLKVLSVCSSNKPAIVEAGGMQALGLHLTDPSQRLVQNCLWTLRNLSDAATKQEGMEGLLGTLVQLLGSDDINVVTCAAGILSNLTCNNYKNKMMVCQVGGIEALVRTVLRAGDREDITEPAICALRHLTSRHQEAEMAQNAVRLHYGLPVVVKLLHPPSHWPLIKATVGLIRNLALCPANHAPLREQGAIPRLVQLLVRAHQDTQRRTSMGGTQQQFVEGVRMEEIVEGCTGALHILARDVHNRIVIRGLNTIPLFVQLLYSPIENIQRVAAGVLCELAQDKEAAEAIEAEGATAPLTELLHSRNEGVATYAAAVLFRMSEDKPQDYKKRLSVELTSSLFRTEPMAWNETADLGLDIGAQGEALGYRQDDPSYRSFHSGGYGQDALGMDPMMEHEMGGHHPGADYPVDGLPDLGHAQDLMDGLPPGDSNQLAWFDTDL

Assay [2] concerns the target β-Catenin (mouse (endogenous in FLS and MEFs)) (UniProt Q02248). In words: co-IP; β-Catenin antibody on protein G Dynabeads, lysates of wt FLS, overnight at 4 °C; immunoblot for Lasp1, Cadherin-11, p120-Catenin and β-Catenin; Lasp1−/− FLS as control.
For assay [3] the target is unchanged. The assay can be described thus: co-IP; β-Catenin antibody on protein G Dynabeads, NP-40 lysates of Lasp1−/− MEFs transfected with GFP-tagged Lasp1 constructs (48 h); immunoblot with an anti-GFP antibody.

Drawing on article PMC8206096, this text covers binding for four molecules.

Results are given in words; binding and its absence hold for the method and conditions named. In cells and extracts the contact can be indirect. Some results given as binding are weak or reduced against the parent protein; the word gives no strength. For some of these results: Sequences can lack the tags named with a protein.

For β-Catenin (from UniProt Q02248 1-781), the binding entry in assay [1] is reported as “binds”.

B1: LIM and SH3 domain protein 1 (Lasp1) (protein, UniProt Q61792 1-263)
chain: T1 sequence
For B1, the binding result in assay [2] is “binds”.

B2: GFP-tagged Lasp1 full length (FL) construct (protein, UniProt Q61792 1-263)
chain: T1 sequence
B2: the binding result in assay [3] is “binds”.

B3: p120-Catenin (protein, UniProt P30999 1-938)
chain: MDDSEVESTASILASVKEQEAQFEKLTRALEEERRHVSAQLERVRVSPQDANSLMANGTLTRRHQNGRFVGDADLERQKFSDLKLNGPQDHNHLLYSTIPRMQEPGQIVETYTEEDPEGAMSVVSVETTDDGTTRRTETTVKKVVKTMTTRTVQPVPMGPDGLPVDASAVSNNYIQTLGRDFRKNGNGGPGPYVGQAGTATLPRNFHYPPDGYGRHYEDGYPGGSDNYGSLSRVTRIEERYRPSMEGYRAPSRQDVYGPQPQVRVGGSSVDLHRFHPEPYGLEDDQRSMGYDDLDYGMMSDYGTARRTGTPSDPRRRLRSYEDMIGEEVPPDQYYWAPLAQHERGSLASLDSLRKGMPPPSNWRQPELPEVIAMLGFRLDAVKSNAAAYLQHLCYRNDKVKTDVRKLKGIPILVGLLDHPKKEVHLGACGALKNISFGRDQDNKIAIKNCDGVPALVRLLRKARDMDLTEVITGTLWNLSSHDSIKMEIVDHALHALTDEVIIPHSGWEREPNEDCKPRHIEWESVLTNTAGCLRNVSSERSEARRKLRECDGLVDALIFIVQAEIGQKDSDSKLVENCVCLLRNLSYQVHREIPQAERYQEALPTVANSTGPHAASCFGAKKGKDEWFSRGKKPTEDPANDTVDFPKRTSPARGYELLFQPEVVRIYISLLKESKTPAILEASAGAIQNLCAGRWTYGRYIRSALRQEKALSAIAELLTSEHERVVKAASGALRNLAVDARNKELIGKHAIPNLVKNLPGGQQNSSWNFSEDTVVSILNTINEVIAENLEAAKKLRETQGIEKLVLINKSGNRSEKEVRAAALVLQTIWGYKELRKPLEKEGWKKSDFQVNLNNASRSQSSHSYDDSTLPLIDRNQKSDKKPDREEIPMSNMGSNTKSLDNNYSTLNERGDHNRTLDRSGDLGDMEPLKGAPLMQKI
For B3, the binding result in assay [2] is listed as “binds”.
